# Measurements from article PMC10158545.
# By UniProt entry, the sequences of proteins in these tests, tags left out. Residues count along the entry.
# UniProt Q9NZQ7, residues 19-290: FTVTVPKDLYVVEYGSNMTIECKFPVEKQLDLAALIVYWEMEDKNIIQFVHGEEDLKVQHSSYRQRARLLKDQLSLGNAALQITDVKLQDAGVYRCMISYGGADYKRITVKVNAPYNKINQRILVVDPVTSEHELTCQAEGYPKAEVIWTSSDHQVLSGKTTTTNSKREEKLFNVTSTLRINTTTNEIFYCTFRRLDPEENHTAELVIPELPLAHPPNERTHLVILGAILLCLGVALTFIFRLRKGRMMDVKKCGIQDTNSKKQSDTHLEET
# No constants are given. Whether binding was seen depends on the method and setting. In cells and extracts the contact can be indirect. Some binding calls cover weakened binding; strength is not graded here. For part of these data: Tags and fused reporters may be left off the sequences shown.
# T1: Flag-tagged FLOT1 (FLOT1-3Flag) (human) (UniProt O75955)
# T1 sequence: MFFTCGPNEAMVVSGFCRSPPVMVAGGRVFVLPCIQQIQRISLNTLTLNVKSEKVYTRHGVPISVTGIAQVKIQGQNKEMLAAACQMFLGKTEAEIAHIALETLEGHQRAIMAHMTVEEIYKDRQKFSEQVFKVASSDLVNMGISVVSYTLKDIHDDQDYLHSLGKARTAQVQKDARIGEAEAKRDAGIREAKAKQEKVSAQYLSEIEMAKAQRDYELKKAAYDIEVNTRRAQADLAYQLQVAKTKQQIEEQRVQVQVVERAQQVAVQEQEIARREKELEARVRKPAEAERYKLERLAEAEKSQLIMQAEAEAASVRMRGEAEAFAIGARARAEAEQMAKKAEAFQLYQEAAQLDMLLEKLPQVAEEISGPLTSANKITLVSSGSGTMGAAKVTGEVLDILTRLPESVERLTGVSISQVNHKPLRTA
# Assays:
# [1] = biological target: T1, Flag-tagged FLOT1 (FLOT1-3Flag) (human); test: co-IP; HEK293T co-transfected with Flag-FLOT1 and HA-PD-L1 (or vector), lysates 48 h after transfection; anti-Flag or anti-HA magnetic beads at 4°C overnight, washed with PBST (0.1% Triton X-100); immunoblot with anti-HA or anti-Flag
# [2] = biological target: programmed death-ligand 1 (PD-L1), endogenous (human (endogenous in A549 and A549/X)) (UniProt Q9NZQ7); test: co-IP; endogenous proteins; A549 and radioresistant A549/X cells lysed in 20 mM Tris pH 7.5, 150 mM NaCl, 1% Triton X-100, 1 mM EDTA; primary antibody overnight at 4°C, protein A/G agarose; immunoblot
# [3] = biological target: HA-tagged PD-L1 (PD-L1-3 HA) (UniProt Q9NZQ7); test: co-IP; HEK293T co-transfected with Flag-FLOT1 and HA-PD-L1 (or vector), lysates 48 h after transfection; anti-Flag or anti-HA magnetic beads at 4°C overnight, washed with PBST (0.1% Triton X-100); immunoblot with anti-HA or anti-Flag
molecule,measurement,setting,value
HA-tagged PD-L1 (PD-L1-3 HA) (from UniProt Q9NZQ7 19-290),binding,[1],binds
"flotillin-1 (FLOT1), endogenous (protein, UniProt O75955 1-427) MFFTCGPNEAMVVSGFCRSPPVMVAGGRVFVLPCIQQIQRISLNTLTLNVKSEKVYTRHGVPISVTGIAQVKIQGQNKEMLAAACQMFLGKTEAEIAHIALETLEGHQRAIMAHMTVEEIYKDRQKFSEQVFKVASSDLVNMGISVVSYTLKDIHDDQDYLHSLGKARTAQVQKDARIGEAEAKRDAGIREAKAKQEKVSAQYLSEIEMAKAQRDYELKKAAYDIEVNTRRAQADLAYQLQVAKTKQQIEEQRVQVQVVERAQQVAVQEQEIARREKELEARVRKPAEAERYKLERLAEAEKSQLIMQAEAEAASVRMRGEAEAFAIGARARAEAEQMAKKAEAFQLYQEAAQLDMLLEKLPQVAEEISGPLTSANKITLVSSGSGTMGAAKVTGEVLDILTRLPESVERLTGVSISQVNHKPLRTA",binding,[2],binds
"Flag-tagged FLOT1 (FLOT1-3Flag) (protein, UniProt O75955 1-427) MFFTCGPNEAMVVSGFCRSPPVMVAGGRVFVLPCIQQIQRISLNTLTLNVKSEKVYTRHGVPISVTGIAQVKIQGQNKEMLAAACQMFLGKTEAEIAHIALETLEGHQRAIMAHMTVEEIYKDRQKFSEQVFKVASSDLVNMGISVVSYTLKDIHDDQDYLHSLGKARTAQVQKDARIGEAEAKRDAGIREAKAKQEKVSAQYLSEIEMAKAQRDYELKKAAYDIEVNTRRAQADLAYQLQVAKTKQQIEEQRVQVQVVERAQQVAVQEQEIARREKELEARVRKPAEAERYKLERLAEAEKSQLIMQAEAEAASVRMRGEAEAFAIGARARAEAEQMAKKAEAFQLYQEAAQLDMLLEKLPQVAEEISGPLTSANKITLVSSGSGTMGAAKVTGEVLDILTRLPESVERLTGVSISQVNHKPLRTA",binding,[3],binds
